This passage reports binding results from paper PMC3947954.

Results are given in words; binding and its absence hold for the method and conditions named. Binding seen in cells or lysates may run through a third protein. Binding can be weak; no strength is given. Tags and fused reporters may be left off the sequences shown.

This assay concerns the target T1, HIP14L-GFP (Huntingtin Interacting Protein 14-like, GFP tagged) (human (from the printed RefSeq entries)) (UniProt Q8IUH4).
T1 sequence: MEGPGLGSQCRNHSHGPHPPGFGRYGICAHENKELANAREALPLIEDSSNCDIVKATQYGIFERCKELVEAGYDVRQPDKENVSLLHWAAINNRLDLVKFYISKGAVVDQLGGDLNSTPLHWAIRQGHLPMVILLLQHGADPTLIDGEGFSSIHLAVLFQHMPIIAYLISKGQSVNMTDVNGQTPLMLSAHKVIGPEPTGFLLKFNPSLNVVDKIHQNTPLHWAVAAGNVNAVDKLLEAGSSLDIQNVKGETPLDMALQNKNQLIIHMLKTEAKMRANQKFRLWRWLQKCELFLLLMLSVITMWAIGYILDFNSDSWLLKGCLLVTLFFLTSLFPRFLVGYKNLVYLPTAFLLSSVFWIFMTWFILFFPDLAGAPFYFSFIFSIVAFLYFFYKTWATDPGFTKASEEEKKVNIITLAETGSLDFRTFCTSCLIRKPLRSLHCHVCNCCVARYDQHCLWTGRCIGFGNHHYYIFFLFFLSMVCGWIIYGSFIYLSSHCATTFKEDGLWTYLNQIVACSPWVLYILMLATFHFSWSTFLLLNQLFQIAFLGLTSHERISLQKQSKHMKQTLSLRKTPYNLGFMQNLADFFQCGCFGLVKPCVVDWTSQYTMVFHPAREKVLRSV
Nature of the assay: co-IP; COS-7 cells transiently co-transfected, harvested after 24 h; lysed in 1% SDS TEEN, diluted in four volumes 1% TritonX-100 TEEN; GFP immunoprecipitated overnight (goat anti-GFP, Dynabeads Protein G); blots probed for HTT and GFP; HTT band as percent of the GFP band, normalized to 15Q HTT 1–548.
As to “128Q HTT 1–427 (human) (domain or fragment)”, the binding result is reported as “binds”.
In the case of “15Q HTT 1–427 (human) (domain or fragment)” it was “binds”; in that of “HTT 427–548 (human) (domain or fragment)”, “no binding”; in that of “128Q HTT 1–224 (human) (domain or fragment)”, “no binding”.
In the case of “15Q HTT 1–548 (human) (domain or fragment)” it was “binds”; in that of “15Q HTT 1-548Δ257-315 (human) (domain or fragment)”, “binds”; in that of HTT 88–548 (human) (domain or fragment), “binds”.
“HTT 151–548 (human) (domain or fragment)”: the binding result is given as “binds”.
Consider “HTT 224–548 (human) (domain or fragment)”, for which the binding entry is on record as “binds”.
On to “15Q HTT 1–224 (human) (domain or fragment)”, for which the binding result is listed as “no binding”.
